These are yes or no findings as the source states them, for the method shown. In cells and extracts the contact can be indirect. Some binding calls cover weakened binding; strength is not graded here. For some of these results: Tags and fused reporters may be left off the sequences shown.
B1: GINS3 (endogenous, HEK293T) (protein, UniProt Q9BRX5 1-216)
chain: MSEAYFRVESGALGPEENFLSLDDILMSHEKLPVRTETAMPRLGAFFLERSAGAETDNAVPQGSKLELPLWLAKGLFDNKRRILSVELPKIYQEGWRTVFSADPNVVDLHKMGPHFYGFGSQLLHFDSPENADISQSLLQTFIGRFRRIMDSSQNAYNEDTSALVARLDEMERGLFQTGQKGLNDFQCWEKGQASQITASNLVQNYKKRKFTDMED
B2: CDC45 (endogenous, HEK293T) (protein, UniProt O75419 1-566)
chain: MFVSDFRKEFYEVVQSQRVLLFVASDVDALCACKILQALFQCDHVQYTLVPVSGWQELETAFLEHKEQFHYFILINCGANVDLLDILQPDEDTIFFVCDTHRPVNVVNVYNDTQIKLLIKQDDDLEVPAYEDIFRDEEEDEEHSGNDSDGSEPSEKRTRLEEEIVEQTMRRRQRREWEARRRDILFDYEQYEYHGTSSAMVMFELAWMLSKDLNDMLWWAIVGLTDQWVQDKITQMKYVTDVGVLQRHVSRHNHRNEDEENTLSVDCTRISFEYDLRLVLYQHWSLHDSLCNTSYTAARFKLWSVHGQKRLQEFLADMGLPLKQVKQKFQAMDISLKENLREMIEESANKFGMKDMRVQTFSIHFGFKHKFLASDVVFATMSLMESPEKDGSGTDHFIQALDSLSRSNLDKLYHGLELAKKQLRATQQTIASCLCTNLVISQGPFLYCSLMEGTPDVMLFSRPASLSLLSKHLLKSFVCSTKNRRCKLLPLVMAAPLSMEHGTVTVVGIPPETDSSDRKNFFGRAFEKAAESTSSRMLHNHFDLSVIELKAEDRSKFLDALISLLS
B3: MCM5 (endogenous, HeLa) (protein, UniProt P33992 1-734)
chain: MSGFDDPGIFYSDSFGGDAQADEGQARKSQLQRRFKEFLRQYRVGTDRTGFTFKYRDELKRHYNLGEYWIEVEMEDLASFDEDLADYLYKQPAEHLQLLEEAAKEVADEVTRPRPSGEEVLQDIQVMLKSDASPSSIRSLKSDMMSHLVKIPGIIIAASAVRAKATRISIQCRSCRNTLTNIAMRPGLEGYALPRKCNTDQAGRPKCPLDPYFIMPDKCKCVDFQTLKLQELPDAVPHGEMPRHMQLYCDRYLCDKVVPGNRVTIMGIYSIKKFGLTTSRGRDRVGVGIRSSYIRVLGIQVDTDGSGRSFAGAVSPQEEEEFRRLAALPNVYEVISKSIAPSIFGGTDMKKAIACLLFGGSRKRLPDGLTRRGDINLLMLGDPGTAKSQLLKFVEKCSPIGVYTSGKGSSAAGLTASVMRDPSSRNFIMEGGAMVLADGGVVCIDEFDKMREDDRVAIHEAMEQQTISIAKAGITTTLNSRCSVLAAANSVFGRWDETKGEDNIDFMPTILSRFDMIFIVKDEHNEERDVMLAKHVITLHVSALTQTQAVEGEIDLAKLKKFIAYCRVKCGPRLSAEAAEKLKNRYIIMRSGARQHERDSDRRSSIPITVRQLEAIVRIAEALSKMKLQPFATEADVEEALRLFQVSTLDAALSGTLSGVEGFTSQEDQEMLSRIEKQLKRRFAIGSQVSEHSIIKDFTKQKYPEHAIHKVLQLMLRRGEIQHRMQRKVLYRLK
B4: GINS3 (endogenous, HeLa) (protein, UniProt Q9BRX5 1-216)
chain: MSEAYFRVESGALGPEENFLSLDDILMSHEKLPVRTETAMPRLGAFFLERSAGAETDNAVPQGSKLELPLWLAKGLFDNKRRILSVELPKIYQEGWRTVFSADPNVVDLHKMGPHFYGFGSQLLHFDSPENADISQSLLQTFIGRFRRIMDSSQNAYNEDTSALVARLDEMERGLFQTGQKGLNDFQCWEKGQASQITASNLVQNYKKRKFTDMED
B5: CDC45 (endogenous, HeLa) (protein, UniProt O75419 1-566)
chain: MFVSDFRKEFYEVVQSQRVLLFVASDVDALCACKILQALFQCDHVQYTLVPVSGWQELETAFLEHKEQFHYFILINCGANVDLLDILQPDEDTIFFVCDTHRPVNVVNVYNDTQIKLLIKQDDDLEVPAYEDIFRDEEEDEEHSGNDSDGSEPSEKRTRLEEEIVEQTMRRRQRREWEARRRDILFDYEQYEYHGTSSAMVMFELAWMLSKDLNDMLWWAIVGLTDQWVQDKITQMKYVTDVGVLQRHVSRHNHRNEDEENTLSVDCTRISFEYDLRLVLYQHWSLHDSLCNTSYTAARFKLWSVHGQKRLQEFLADMGLPLKQVKQKFQAMDISLKENLREMIEESANKFGMKDMRVQTFSIHFGFKHKFLASDVVFATMSLMESPEKDGSGTDHFIQALDSLSRSNLDKLYHGLELAKKQLRATQQTIASCLCTNLVISQGPFLYCSLMEGTPDVMLFSRPASLSLLSKHLLKSFVCSTKNRRCKLLPLVMAAPLSMEHGTVTVVGIPPETDSSDRKNFFGRAFEKAAESTSSRMLHNHFDLSVIELKAEDRSKFLDALISLLS
B6: MCM5 (endogenous, HEK293T) (protein, UniProt P33992 1-734)
chain: MSGFDDPGIFYSDSFGGDAQADEGQARKSQLQRRFKEFLRQYRVGTDRTGFTFKYRDELKRHYNLGEYWIEVEMEDLASFDEDLADYLYKQPAEHLQLLEEAAKEVADEVTRPRPSGEEVLQDIQVMLKSDASPSSIRSLKSDMMSHLVKIPGIIIAASAVRAKATRISIQCRSCRNTLTNIAMRPGLEGYALPRKCNTDQAGRPKCPLDPYFIMPDKCKCVDFQTLKLQELPDAVPHGEMPRHMQLYCDRYLCDKVVPGNRVTIMGIYSIKKFGLTTSRGRDRVGVGIRSSYIRVLGIQVDTDGSGRSFAGAVSPQEEEEFRRLAALPNVYEVISKSIAPSIFGGTDMKKAIACLLFGGSRKRLPDGLTRRGDINLLMLGDPGTAKSQLLKFVEKCSPIGVYTSGKGSSAAGLTASVMRDPSSRNFIMEGGAMVLADGGVVCIDEFDKMREDDRVAIHEAMEQQTISIAKAGITTTLNSRCSVLAAANSVFGRWDETKGEDNIDFMPTILSRFDMIFIVKDEHNEERDVMLAKHVITLHVSALTQTQAVEGEIDLAKLKKFIAYCRVKCGPRLSAEAAEKLKNRYIIMRSGARQHERDSDRRSSIPITVRQLEAIVRIAEALSKMKLQPFATEADVEEALRLFQVSTLDAALSGTLSGVEGFTSQEDQEMLSRIEKQLKRRFAIGSQVSEHSIIKDFTKQKYPEHAIHKVLQLMLRRGEIQHRMQRKVLYRLK

The chains behind the UniProt entries cited, without tags or fusion partners.
UniProt O94874: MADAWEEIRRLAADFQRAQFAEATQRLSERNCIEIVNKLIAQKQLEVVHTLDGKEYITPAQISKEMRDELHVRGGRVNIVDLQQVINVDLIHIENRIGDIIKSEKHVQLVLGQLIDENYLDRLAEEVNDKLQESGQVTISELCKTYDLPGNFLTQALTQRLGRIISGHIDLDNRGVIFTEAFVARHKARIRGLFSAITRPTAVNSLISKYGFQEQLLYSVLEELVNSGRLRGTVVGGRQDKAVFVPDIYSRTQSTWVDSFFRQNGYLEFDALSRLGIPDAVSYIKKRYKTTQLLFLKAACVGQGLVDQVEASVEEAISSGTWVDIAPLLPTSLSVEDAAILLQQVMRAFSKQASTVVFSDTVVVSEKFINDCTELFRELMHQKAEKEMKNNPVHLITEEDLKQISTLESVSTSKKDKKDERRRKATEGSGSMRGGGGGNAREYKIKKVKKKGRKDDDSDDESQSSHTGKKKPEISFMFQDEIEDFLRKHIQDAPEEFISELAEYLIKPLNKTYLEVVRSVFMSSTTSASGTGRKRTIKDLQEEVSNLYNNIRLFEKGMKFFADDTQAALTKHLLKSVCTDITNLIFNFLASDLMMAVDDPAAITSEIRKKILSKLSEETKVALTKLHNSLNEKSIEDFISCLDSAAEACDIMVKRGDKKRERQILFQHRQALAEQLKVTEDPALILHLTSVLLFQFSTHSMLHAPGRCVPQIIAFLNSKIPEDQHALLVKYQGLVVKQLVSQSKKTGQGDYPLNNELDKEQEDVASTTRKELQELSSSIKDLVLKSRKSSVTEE

Key:
[1] = molecular target: UFL1 (endogenous, HEK293T) (human (endogenous in HEK293T)) (UniProt O94874); experiment: co-IP; endogenous; HEK293T cell lysates precipitated with an anti-UFL1 antibody or control IgG, western blot
[2] = molecular target: FLAG-UFL1, expressed in HeLa cells (UniProt O94874); experiment: proximity ligation; HeLa cells transfected with FLAG-VEC or FLAG-UFL1; PLA of UFL1 with CDC45, GINS3 or MCM5; Duolink In Situ Red kit, fixed cells
[3] = molecular target: FLAG-UFL1, expressed in HeLa cells (UniProt O94874); experiment: co-IP; HeLa cells expressing FLAG-UFL1, synchronised with nocodazole and lysed at times after release (association told at 8 h); UFL1 purified on FLAG M2 beads, western blot
[4] = molecular target: T1, MCM5 (endogenous, HeLa) (human (endogenous in HeLa)) (UniProt P33992); experiment: co-IP; endogenous; chromatin fractions of HeLa cells, anti-MCM5 antibody or IgG; cells treated with DMSO or DKM 2-93 (100 uM), or siNC or siUFL1
T1 sequence: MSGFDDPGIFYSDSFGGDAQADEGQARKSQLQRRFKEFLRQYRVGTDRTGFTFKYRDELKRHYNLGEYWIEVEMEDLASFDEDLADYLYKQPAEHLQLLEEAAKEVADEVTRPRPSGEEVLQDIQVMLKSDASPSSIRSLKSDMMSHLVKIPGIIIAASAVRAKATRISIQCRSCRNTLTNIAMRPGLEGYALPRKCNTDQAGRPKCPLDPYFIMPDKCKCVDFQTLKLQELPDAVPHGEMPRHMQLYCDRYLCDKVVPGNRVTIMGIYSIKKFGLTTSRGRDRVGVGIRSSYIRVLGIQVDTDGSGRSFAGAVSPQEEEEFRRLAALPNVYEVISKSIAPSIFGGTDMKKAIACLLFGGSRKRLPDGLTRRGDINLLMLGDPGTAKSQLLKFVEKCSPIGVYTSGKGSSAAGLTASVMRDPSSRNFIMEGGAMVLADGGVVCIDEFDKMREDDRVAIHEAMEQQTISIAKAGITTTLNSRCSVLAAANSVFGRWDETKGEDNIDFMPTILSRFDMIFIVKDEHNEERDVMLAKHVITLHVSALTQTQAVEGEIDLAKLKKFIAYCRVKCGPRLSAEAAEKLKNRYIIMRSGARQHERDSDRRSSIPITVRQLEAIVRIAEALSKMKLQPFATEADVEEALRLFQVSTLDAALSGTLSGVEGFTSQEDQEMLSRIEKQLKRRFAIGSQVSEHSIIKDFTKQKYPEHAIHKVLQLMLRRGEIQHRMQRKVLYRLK

[5] = molecular target: T1, MCM5 (endogenous, HeLa) (human (endogenous in HeLa)); experiment: proximity ligation; endogenous MCM5/GINS3 and MCM5/CDC45 PLA foci in HeLa cells 1 h after release from double-thymidine block; DMSO or DKM 2-93 (100 uM), siNC or siUFL1
[6] = molecular target: T2, FLAG-MCM5 (K583R), expressed in HeLa cells (human) (UniProt P33992); experiment: co-IP; anti-FLAG immunoprecipitates from the chromatin fraction of HeLa cells transfected with FLAG-MCM5 (WT) or (K583R); in one panel cells treated with DKM 2-93 (100 uM, 16 h)
T2 sequence: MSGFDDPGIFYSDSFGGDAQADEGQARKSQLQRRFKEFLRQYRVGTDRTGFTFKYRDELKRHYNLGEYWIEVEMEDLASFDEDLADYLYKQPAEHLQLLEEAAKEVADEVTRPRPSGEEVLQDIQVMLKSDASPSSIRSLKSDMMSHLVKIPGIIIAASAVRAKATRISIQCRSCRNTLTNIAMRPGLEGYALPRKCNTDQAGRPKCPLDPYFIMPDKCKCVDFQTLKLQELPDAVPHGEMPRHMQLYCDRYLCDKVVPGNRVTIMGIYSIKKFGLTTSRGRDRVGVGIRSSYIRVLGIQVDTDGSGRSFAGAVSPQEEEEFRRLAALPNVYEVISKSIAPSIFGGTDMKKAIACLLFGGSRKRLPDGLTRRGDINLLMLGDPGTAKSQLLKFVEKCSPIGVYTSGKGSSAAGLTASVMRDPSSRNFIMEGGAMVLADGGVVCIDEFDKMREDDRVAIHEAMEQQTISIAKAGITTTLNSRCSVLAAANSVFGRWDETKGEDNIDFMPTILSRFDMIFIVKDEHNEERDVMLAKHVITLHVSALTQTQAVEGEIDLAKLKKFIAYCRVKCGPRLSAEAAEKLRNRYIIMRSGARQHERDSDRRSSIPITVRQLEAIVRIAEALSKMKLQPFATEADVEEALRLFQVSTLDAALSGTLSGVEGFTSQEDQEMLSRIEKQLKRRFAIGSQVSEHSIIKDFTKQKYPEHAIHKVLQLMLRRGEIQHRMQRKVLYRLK

[7] = molecular target: T3, FLAG-MCM5 (WT), expressed in HeLa cells (human) (UniProt P33992); experiment: as above
T3 sequence: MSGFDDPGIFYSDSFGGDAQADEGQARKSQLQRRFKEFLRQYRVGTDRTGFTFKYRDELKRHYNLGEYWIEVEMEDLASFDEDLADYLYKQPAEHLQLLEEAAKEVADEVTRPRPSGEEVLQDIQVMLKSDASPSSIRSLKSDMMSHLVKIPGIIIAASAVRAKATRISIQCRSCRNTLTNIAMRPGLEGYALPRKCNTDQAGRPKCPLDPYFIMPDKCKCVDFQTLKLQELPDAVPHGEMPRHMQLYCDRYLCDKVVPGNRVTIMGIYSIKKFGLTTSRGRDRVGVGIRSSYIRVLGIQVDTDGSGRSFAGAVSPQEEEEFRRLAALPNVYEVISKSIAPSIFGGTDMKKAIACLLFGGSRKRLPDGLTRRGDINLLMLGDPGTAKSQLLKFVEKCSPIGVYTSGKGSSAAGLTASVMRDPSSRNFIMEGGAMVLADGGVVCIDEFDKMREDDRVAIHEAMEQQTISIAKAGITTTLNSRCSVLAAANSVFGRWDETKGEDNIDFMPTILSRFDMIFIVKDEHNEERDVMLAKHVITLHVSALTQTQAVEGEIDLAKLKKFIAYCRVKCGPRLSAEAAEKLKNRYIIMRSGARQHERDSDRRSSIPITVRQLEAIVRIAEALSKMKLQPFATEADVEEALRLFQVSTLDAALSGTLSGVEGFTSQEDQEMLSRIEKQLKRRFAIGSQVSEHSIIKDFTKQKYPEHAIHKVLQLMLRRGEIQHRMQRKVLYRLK

[8] = molecular target: T3, FLAG-MCM5 (WT), expressed in HeLa cells (human); experiment: proximity ligation; HeLa cells transfected with FLAG-VEC, FLAG-MCM5 (WT) or FLAG-MCM5 (K583R), 1 h after release from double-thymidine block; PLA with CDC45

Row | Binder | binding [1] | binding [2] | binding [4] | binding [5] | binding [6] | binding [7] | further results
1 | B1 | binds |  |  |  |  |  | 
2 | B2 | binds |  |  |  |  |  | 
3 | B3 |  | binds |  |  |  |  | binding [3]: binds
4 | B4 |  | binds | binds | binds | binds | binds | 
5 | B5 |  | binds | binds | binds | binds | binds | binding [8]: binds
6 | B6 | binds |  |  |  |  |  | 

— article PMC12583452
